These are yes or no findings as the source states them, for the method shown. Binding seen in cells or lysates may run through a third protein. Some entries that bind do so weakly or less than the wild type.
Biological target: human δ opioid receptor–Renilla luciferase (DOPr-Rluc) (human) (UniProt P41143)
Experiment: FRET or BRET; BRET2 in live HEK293 cells co-transfected with human DOPr-Rluc (donor) and arrestin-2-GFP or arrestin-3-GFP (acceptor); read 10 min after agonist (SNC80, PN6047, DADLE or ARM390) at 37°C with 5 µM coelenterazine 400a; also after preincubation with compound 101 (GRK2/3 inhibitor), which attenuated recruitment

Amino acid sequences for entries named in this document (tags omitted).
UniProt P49407: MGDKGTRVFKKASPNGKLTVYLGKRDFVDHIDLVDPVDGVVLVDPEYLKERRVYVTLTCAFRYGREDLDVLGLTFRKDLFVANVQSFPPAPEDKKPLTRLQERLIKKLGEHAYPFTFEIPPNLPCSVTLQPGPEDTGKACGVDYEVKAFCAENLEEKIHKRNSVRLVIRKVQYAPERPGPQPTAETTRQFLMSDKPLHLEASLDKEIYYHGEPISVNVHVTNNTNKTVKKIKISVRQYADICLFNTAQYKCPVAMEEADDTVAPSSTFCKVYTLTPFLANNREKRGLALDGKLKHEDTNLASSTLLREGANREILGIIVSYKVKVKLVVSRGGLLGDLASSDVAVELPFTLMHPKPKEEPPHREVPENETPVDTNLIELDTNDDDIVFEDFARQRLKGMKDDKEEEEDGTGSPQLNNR

arrestin-2 Green Fluorescent Protein construct (from UniProt P49407 1-418)
binding: binds

From PMC6978697
